Results are given in words; binding and its absence hold for the method and conditions named. Binding seen in cells or lysates may run through a third protein. Here binding means that the protein was enriched with, or labelled near, the bait; the list need not be complete.
Molecular target: glucocorticoid receptor (mouse (endogenous in FACS-isolated myeloid cells)) (UniProt P06537)
Assay: affinity purification with mass spectrometry

By UniProt entry, the sequences of proteins in these tests, tags left out. Where a name states a change or a piece, a line headed by the entry shows the natural chain unless it says otherwise.
UniProt P06537: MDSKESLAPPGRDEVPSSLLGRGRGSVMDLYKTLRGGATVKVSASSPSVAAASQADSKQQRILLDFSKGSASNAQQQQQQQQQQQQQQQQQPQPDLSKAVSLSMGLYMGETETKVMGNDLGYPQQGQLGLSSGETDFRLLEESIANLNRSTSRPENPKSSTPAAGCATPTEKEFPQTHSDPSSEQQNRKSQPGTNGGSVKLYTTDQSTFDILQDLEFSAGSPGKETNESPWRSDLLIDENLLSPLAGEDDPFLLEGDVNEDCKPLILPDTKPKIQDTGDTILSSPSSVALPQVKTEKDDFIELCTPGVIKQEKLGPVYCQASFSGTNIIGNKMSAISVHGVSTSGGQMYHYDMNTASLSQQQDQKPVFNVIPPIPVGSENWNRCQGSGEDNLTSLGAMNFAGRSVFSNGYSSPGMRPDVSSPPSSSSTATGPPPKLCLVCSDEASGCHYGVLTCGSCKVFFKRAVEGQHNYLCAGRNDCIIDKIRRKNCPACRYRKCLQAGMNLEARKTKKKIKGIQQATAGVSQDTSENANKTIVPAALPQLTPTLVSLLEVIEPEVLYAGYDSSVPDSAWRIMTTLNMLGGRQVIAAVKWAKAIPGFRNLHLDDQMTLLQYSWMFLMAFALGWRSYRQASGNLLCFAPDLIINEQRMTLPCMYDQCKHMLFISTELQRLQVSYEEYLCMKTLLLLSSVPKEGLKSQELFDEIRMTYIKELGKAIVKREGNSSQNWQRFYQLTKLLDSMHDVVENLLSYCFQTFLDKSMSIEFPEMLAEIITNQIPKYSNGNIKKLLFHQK
UniProt P25799: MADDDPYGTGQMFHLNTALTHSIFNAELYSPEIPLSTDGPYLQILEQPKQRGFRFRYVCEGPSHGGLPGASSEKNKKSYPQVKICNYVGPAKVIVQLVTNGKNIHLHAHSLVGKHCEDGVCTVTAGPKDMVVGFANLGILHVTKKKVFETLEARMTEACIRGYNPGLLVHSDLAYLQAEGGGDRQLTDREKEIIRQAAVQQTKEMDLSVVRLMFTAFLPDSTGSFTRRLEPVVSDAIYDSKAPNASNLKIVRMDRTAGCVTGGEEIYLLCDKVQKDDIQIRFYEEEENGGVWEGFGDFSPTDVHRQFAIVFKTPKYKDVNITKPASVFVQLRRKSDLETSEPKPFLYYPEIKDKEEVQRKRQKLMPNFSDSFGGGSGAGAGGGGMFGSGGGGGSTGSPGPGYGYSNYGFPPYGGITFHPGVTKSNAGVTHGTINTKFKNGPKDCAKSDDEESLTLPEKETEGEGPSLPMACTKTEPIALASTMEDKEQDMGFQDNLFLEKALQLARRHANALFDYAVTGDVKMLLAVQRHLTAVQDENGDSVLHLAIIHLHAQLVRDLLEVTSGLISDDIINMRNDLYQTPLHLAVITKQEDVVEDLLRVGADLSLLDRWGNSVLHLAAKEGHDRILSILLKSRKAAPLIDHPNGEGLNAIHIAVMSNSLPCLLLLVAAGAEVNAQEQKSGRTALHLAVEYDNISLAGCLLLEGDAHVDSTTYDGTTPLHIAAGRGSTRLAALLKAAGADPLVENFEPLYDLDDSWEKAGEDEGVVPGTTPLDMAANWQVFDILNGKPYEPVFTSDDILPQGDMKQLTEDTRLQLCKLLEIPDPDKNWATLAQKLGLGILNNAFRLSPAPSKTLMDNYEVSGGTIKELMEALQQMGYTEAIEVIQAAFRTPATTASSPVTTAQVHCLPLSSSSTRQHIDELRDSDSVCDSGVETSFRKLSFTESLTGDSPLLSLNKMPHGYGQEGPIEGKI
UniProt Q5SS00: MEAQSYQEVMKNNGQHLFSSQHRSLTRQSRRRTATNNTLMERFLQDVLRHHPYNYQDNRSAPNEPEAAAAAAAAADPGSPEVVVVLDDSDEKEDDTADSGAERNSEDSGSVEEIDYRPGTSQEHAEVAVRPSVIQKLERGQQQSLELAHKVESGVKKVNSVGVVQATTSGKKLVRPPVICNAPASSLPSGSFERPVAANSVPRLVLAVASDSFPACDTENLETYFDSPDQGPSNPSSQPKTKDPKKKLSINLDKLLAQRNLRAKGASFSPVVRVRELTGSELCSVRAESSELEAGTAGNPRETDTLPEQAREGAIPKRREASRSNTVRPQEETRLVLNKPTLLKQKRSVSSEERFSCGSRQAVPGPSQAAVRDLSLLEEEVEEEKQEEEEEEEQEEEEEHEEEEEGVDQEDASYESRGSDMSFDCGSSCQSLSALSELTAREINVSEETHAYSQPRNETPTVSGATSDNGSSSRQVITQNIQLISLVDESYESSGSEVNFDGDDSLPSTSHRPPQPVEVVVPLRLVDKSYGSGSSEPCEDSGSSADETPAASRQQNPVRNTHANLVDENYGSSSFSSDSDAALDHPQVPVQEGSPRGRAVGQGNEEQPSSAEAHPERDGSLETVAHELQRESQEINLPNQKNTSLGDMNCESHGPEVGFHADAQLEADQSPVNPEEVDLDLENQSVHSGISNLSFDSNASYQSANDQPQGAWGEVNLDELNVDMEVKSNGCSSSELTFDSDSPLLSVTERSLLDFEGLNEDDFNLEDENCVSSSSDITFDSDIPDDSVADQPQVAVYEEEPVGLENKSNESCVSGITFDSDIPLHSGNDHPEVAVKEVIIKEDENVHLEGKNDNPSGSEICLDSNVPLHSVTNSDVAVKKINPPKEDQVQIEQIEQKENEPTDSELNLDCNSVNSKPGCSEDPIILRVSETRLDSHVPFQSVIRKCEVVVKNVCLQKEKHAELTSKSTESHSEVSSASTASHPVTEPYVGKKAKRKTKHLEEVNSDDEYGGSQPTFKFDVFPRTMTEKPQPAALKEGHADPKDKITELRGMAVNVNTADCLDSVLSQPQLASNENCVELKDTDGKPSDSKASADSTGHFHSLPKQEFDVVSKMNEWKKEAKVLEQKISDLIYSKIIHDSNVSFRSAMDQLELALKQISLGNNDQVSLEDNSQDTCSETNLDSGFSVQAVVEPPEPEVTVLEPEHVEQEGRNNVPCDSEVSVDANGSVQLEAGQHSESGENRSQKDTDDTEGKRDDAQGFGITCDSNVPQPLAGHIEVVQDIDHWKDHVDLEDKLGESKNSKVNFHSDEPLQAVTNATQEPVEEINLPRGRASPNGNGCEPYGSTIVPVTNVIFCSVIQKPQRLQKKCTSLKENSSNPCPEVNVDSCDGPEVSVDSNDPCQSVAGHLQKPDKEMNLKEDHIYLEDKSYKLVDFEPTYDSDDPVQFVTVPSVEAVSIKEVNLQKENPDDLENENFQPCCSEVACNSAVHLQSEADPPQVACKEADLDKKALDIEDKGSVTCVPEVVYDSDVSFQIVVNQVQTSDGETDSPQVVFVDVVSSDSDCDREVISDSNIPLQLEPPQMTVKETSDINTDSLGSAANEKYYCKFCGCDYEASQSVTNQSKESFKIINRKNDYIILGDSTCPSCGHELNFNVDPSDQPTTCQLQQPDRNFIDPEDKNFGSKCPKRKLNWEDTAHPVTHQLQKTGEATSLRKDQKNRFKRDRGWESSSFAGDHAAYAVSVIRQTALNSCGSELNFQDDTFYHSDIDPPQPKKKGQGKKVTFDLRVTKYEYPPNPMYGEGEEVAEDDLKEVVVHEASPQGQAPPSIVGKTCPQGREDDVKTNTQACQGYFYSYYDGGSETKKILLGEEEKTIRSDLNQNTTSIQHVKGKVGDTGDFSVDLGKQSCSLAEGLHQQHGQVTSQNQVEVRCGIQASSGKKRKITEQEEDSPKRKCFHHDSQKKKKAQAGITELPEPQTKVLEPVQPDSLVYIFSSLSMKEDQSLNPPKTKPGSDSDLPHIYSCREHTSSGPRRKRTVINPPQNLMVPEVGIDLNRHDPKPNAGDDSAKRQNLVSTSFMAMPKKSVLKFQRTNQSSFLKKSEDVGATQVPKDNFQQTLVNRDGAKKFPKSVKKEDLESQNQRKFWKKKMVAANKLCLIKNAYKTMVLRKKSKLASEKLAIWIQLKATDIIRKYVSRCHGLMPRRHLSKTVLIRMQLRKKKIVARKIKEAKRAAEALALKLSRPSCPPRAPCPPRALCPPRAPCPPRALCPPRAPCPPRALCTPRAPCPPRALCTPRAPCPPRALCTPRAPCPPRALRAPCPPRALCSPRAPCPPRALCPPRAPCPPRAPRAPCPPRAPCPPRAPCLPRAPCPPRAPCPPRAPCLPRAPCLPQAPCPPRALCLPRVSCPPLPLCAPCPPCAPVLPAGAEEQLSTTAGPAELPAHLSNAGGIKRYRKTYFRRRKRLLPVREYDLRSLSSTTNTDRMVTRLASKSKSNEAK
UniProt Q8BHG1: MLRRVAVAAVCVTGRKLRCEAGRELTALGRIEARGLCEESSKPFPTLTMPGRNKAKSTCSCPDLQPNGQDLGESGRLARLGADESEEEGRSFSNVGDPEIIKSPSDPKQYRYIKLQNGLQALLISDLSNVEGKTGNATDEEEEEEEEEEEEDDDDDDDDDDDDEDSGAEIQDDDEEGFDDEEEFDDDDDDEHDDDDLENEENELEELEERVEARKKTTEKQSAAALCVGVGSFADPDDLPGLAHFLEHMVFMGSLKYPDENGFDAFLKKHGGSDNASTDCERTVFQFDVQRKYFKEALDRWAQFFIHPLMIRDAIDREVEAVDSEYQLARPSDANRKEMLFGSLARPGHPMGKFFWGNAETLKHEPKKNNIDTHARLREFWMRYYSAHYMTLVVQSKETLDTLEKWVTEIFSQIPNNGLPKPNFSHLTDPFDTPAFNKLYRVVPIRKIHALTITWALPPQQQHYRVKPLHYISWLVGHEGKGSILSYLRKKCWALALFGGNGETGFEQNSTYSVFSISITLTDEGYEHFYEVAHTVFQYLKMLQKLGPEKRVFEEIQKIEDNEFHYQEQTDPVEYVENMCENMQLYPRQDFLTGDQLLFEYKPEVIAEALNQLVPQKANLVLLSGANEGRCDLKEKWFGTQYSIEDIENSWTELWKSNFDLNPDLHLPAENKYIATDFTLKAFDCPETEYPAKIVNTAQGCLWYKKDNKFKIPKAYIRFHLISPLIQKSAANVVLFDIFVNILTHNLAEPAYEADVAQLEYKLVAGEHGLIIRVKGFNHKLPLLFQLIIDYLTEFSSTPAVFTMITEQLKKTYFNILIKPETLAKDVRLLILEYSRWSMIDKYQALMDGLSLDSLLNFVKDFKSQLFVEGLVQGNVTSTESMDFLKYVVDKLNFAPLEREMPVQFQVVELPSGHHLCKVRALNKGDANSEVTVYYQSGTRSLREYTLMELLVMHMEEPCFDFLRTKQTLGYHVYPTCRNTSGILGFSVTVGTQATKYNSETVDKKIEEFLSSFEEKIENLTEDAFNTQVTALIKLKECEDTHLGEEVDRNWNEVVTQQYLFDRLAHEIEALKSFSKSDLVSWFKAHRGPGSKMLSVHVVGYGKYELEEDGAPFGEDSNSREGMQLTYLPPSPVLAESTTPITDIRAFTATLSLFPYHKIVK
UniProt P49290: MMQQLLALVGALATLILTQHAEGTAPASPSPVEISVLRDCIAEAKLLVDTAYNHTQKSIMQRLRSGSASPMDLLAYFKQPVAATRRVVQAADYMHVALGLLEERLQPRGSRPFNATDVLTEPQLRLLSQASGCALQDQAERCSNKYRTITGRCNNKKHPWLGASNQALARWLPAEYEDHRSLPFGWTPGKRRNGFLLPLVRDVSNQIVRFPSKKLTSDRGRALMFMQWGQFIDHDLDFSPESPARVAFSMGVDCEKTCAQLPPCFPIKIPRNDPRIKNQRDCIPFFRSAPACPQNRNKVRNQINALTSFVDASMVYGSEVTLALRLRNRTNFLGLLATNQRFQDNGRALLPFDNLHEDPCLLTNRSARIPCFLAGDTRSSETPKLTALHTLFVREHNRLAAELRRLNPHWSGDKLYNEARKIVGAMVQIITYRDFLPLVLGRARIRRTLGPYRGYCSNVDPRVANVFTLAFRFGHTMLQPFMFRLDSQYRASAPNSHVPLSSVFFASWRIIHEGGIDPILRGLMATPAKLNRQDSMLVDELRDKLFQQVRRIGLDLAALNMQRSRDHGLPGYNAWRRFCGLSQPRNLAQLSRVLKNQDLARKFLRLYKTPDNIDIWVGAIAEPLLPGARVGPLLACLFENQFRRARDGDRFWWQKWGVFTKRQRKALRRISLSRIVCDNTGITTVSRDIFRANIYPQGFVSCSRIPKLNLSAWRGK

| binding | Molecule |
| --- | --- |
| binds | NFKB1 (from UniProt P25799 1-971) |
| binds | ZDBF2 (from UniProt Q5SS00 1-2493) |
| binds | TTR (from UniProt P07309 21-147) |
| binds | IQGAP1 (from UniProt Q9JKF1 1-1657) |
| binds | NRDC (from UniProt Q8BHG1) |
| binds | TLN1 (from UniProt P26039 1-2541) |
| binds | TRY10 (from UniProt Q792Z1) (enzyme) |
| binds | EPX (from UniProt P49290) |
| binds | RAB5C (protein, UniProt P35278 1-216) MAGRGGAARPNGPAAGNKICQFKLVLLGESAVGKSSLVLRFVKGQFHEYQESTIGAAFLTQTVCLDDTTVKFEIWDTAGQERYHSLAPMYYRGAQAAIVVYDITNTDTFARAKNWVKELQRQASPNIVIALAGNKADLASKRAVEFQEAQAYADDNSLLFMETSAKTAMNVNEIFMAIAKKLPKNEPQNAAGAPGRTRGVDLQESNPASRSQCCSN |
| binds | Prohibitin-1 (protein, UniProt P67778 1-272) MAAKVFESIGKFGLALAVAGGVVNSALYNVDAGHRAVIFDRFRGVQDIVVGEGTHFLIPWVQKPIIFDCRSRPRNVPVITGSKDLQNVNITLRILFRPVASQLPRIYTSIGEDYDERVLPSITTEILKSVVARFDAGELITQRELVSRQVSDDLTERAATFGLILDDVSLTHLTFGKEFTEAVEAKQVAQQEAERARFVVEKAEQQKKAAIISAEGDSKAAELIANSLATAGDGLIELRKLEAAEDIAYQLSRSRNITYLPAGQSVLLQLPQ |
| binds | FCGR4 (receptor, UniProt A0A0B4J1G0 21-249) GLQKAVVNLDPKWVRVLEEDSVTLRCQGTFSPEDNSIKWFHNESLIPHQDANYVIQSARVKDSGMYRCQTALSTISDPVQLEVHMGWLLLQTTKWLFQEGDPIHLRCHSWQNRPVRKVTYLQNGKGKKYFHENSELLIPKATHNDSGSYFCRGLIGHNNKSSASFRISLGDPGSPSMFPPWHQITFCLLIGLLFAIDTVLYFSVRRGLQSPVADYEEPKIQWSKEPQDK |
